# Some entries share one result that the patent states for a list of compounds. Positions of bridges follow the written chain, without caps; N, C: chain ends. Residues, ends and D or L forms follow the SMILES beside them.
# Molecular target: T1, HER2 receptor (Homo sapiens, UniProt P04626)
# T1 construct: Recombinant purified HER2 receptor composed of the ectodomain of HER2 fused to the Fc of human IgG; purchased Xcyte Therapeutics, Seattle, Wash; (provided by Dr. Che Law; a gift, not a catalogue product)
# Test: Biacore (surface plasmon resonance) binding of peptides to immobilized HER2
# Details: 2 vs linear 9; AHNP vs 2; 3 vs AHNP
# From the text: Binding of AHNP has been studies by means of surface plasmon resonance (Biacore) technology. In Biacore experiments, one of the interacting molecules (termed the ligand) is immobilized on the sensor surface, and the other interactant (termed the analyte) is continuously flown over that surface in a micro-flow cell. The interaction between the ligand and the analyte are monitored using a light source that is reflected at the immobilized chip. Binding of the analyte to the immobilized ligand changes the resonance angle of the reflected light due to changes in the refractive index of the surface. The response is plotted in real time in the form of sensorgram curves. The advantage with this approach is its sensitivity, ease of use, and ability to perform experiments with few microgram quantities of proteins and peptides. In addition, the kinetic binding studies reveal association and disassociation rates of the analyte which may be more relevant for understanding the pharmacokinetics of drug-receptor interactions.
# Binding experiments were performed with the surface plasmon resonance based biosensor instrument Biacore 3000 (Biacore AB, Uppsala, Sweden) at 25° C. […] Peptides were injected at variable concentrations at 20 μL/min flow rate and binding to the HER2 receptor immobilized on the chip was monitored in real time. […]
smiles,measurement,value
CSCC[C@H](NC(=O)[C@H](Cc1ccc(O)cc1)NC(=O)[C@@H]1CSSC[C@H](NC(=O)[C@@H](N)Cc2ccc(O)cc2)C(=O)N[C@@H](CC(=O)O)C(=O)NCC(=O)N[C@@H](Cc2ccccc2)C(=O)N[C@@H](Cc2ccc(O)cc2)C(=O)N[C@@H](C)C(=O)N1)C(=O)N[C@@H](CC(=O)O)C(=O)N[C@H](C(N)=O)C(C)C [Peptide 3] (H-YCDGFYACYMDV-NH2; disulfide 2-8; N-terminus assumed),fold increase in binding affinity for HER2 relative to the comparator peptide,more than 2 fold
